Measured values reported in PMC8213057, “Targeting ALK2: An Open Science Approach to Developing Therapeutics for the Treatment of Diffuse Intrinsic Pontine Glioma” (Journal of Medicinal Chemistry, 2020).

Chains of the proteins cited; added tags and fusions are not shown. Lines headed by an entry give the natural chain unless they say otherwise; changes in a name come on top.
UniProt Q9UKI8: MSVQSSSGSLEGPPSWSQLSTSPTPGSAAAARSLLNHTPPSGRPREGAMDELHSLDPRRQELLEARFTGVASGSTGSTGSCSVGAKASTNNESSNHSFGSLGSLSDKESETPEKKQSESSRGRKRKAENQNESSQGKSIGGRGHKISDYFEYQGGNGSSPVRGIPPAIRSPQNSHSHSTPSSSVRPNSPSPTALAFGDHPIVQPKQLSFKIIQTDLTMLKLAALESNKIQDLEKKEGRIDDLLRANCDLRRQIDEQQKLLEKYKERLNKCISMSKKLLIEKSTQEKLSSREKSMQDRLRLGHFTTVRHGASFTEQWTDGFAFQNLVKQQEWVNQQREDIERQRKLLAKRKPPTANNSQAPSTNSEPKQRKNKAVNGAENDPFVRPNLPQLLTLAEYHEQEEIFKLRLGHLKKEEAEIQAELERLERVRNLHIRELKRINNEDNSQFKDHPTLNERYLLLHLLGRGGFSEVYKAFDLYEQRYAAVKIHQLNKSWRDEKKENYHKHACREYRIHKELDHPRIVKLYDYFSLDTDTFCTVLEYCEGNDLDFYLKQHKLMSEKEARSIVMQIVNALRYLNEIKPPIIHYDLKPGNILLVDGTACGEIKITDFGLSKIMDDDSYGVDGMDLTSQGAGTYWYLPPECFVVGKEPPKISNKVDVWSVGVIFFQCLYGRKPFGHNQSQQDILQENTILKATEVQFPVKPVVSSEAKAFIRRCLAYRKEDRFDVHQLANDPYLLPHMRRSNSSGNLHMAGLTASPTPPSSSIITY
UniProt Q9NR20: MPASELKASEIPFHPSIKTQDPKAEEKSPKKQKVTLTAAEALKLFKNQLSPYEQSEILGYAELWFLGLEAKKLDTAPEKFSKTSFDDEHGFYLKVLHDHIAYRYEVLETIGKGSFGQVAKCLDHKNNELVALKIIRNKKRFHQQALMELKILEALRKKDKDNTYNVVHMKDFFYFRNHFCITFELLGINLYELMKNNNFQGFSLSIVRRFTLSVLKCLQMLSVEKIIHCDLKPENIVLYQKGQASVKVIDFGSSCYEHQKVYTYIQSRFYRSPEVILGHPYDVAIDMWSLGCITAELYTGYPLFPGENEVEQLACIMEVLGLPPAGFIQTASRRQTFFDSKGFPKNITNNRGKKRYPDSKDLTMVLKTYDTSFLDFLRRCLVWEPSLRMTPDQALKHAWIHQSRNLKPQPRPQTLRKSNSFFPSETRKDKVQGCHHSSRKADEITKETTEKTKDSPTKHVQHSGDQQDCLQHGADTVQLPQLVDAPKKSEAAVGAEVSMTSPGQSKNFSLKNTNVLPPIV
UniProt P53667: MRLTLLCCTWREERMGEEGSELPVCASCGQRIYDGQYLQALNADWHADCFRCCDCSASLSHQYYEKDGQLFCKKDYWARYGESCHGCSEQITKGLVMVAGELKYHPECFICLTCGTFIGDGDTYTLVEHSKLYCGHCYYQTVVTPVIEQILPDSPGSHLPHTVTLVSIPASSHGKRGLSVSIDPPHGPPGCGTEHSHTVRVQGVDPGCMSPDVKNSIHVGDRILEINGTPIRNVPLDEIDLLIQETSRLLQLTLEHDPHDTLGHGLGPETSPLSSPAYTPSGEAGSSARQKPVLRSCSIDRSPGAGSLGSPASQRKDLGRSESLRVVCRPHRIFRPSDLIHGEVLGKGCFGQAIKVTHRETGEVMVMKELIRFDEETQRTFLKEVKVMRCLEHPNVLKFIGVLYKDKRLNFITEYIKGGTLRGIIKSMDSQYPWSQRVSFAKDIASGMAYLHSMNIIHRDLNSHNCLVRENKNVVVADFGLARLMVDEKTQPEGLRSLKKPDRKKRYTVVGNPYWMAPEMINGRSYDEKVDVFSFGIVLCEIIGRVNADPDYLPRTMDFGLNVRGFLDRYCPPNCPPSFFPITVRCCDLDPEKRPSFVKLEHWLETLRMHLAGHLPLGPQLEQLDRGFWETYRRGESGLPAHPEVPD
UniProt Q08881: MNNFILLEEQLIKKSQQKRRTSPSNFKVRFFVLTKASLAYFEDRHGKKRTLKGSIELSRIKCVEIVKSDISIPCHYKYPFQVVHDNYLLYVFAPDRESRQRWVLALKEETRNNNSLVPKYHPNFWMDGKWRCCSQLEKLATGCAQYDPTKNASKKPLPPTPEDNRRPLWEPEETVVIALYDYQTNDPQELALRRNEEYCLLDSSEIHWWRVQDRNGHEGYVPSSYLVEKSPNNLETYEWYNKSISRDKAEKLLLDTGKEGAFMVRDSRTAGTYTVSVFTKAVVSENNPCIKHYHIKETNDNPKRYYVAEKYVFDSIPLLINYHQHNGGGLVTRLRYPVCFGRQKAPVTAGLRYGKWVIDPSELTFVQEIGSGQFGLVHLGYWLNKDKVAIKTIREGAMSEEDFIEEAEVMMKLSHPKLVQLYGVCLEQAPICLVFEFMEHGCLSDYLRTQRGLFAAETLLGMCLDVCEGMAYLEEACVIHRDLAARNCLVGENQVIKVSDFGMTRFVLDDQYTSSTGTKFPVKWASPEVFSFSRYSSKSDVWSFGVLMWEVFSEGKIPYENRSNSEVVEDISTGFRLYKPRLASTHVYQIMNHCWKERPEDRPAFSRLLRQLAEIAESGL
UniProt Q8IU85: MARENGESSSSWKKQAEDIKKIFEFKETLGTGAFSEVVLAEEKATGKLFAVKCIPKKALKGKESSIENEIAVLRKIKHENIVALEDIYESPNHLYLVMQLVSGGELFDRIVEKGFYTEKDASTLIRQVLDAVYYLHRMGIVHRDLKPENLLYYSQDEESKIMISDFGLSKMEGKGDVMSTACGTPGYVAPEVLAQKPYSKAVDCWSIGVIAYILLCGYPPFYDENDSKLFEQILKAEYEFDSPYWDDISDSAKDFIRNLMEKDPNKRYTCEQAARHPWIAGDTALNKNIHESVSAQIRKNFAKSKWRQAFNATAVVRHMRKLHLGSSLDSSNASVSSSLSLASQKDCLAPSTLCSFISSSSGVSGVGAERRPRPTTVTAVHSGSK
UniProt P53778: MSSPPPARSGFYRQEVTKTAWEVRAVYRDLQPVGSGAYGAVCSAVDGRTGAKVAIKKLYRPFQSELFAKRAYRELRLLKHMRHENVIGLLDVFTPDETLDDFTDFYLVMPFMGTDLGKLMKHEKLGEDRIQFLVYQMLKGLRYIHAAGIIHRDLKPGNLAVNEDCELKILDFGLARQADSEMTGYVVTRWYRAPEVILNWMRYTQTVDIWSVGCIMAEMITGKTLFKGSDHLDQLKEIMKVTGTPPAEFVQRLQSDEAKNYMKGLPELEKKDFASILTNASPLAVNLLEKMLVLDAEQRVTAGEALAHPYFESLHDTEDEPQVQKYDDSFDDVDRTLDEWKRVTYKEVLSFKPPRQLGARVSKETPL
UniProt Q9BXA6: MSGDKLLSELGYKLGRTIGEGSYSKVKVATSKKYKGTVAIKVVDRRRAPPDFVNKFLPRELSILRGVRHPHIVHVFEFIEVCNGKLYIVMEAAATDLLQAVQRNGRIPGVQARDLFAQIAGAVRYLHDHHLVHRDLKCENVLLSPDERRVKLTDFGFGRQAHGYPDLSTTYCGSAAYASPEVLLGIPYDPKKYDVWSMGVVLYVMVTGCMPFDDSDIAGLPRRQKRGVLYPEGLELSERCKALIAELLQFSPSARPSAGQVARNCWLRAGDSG
UniProt P16591: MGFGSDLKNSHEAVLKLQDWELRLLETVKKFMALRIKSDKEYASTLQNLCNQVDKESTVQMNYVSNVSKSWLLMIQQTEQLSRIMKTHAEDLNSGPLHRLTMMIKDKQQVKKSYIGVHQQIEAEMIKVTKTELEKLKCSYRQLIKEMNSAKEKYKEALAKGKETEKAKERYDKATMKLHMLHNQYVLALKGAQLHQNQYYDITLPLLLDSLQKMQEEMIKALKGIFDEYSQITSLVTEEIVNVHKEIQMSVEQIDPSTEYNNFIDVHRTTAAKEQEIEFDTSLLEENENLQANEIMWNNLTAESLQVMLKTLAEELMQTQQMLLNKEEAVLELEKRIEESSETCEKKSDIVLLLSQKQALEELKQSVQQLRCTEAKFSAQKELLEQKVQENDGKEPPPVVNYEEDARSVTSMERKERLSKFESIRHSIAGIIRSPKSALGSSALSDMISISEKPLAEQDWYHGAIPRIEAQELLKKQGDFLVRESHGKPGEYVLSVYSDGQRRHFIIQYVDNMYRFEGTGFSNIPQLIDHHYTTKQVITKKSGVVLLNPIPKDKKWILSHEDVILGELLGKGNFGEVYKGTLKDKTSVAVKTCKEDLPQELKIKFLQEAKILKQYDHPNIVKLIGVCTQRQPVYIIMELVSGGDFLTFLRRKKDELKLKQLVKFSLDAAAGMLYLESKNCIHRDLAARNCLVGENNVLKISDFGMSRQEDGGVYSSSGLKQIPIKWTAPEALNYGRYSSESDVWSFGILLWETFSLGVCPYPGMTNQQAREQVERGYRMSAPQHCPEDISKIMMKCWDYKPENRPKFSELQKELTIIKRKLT
UniProt O96013: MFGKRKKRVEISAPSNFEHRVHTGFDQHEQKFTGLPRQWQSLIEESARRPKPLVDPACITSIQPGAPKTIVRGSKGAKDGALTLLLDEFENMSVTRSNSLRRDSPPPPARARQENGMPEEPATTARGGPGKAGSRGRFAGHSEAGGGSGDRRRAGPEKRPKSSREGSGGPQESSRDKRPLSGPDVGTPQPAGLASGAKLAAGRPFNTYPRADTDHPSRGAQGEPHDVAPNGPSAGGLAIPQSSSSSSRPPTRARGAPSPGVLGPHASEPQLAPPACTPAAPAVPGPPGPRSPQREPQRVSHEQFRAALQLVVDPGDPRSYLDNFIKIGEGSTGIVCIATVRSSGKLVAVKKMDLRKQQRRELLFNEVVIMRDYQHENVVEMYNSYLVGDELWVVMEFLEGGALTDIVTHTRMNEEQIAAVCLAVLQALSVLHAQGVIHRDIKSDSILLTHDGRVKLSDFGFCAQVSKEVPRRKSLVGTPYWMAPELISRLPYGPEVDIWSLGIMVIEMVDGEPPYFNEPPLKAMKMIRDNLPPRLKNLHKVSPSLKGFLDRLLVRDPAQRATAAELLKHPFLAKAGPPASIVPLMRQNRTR
UniProt P78368: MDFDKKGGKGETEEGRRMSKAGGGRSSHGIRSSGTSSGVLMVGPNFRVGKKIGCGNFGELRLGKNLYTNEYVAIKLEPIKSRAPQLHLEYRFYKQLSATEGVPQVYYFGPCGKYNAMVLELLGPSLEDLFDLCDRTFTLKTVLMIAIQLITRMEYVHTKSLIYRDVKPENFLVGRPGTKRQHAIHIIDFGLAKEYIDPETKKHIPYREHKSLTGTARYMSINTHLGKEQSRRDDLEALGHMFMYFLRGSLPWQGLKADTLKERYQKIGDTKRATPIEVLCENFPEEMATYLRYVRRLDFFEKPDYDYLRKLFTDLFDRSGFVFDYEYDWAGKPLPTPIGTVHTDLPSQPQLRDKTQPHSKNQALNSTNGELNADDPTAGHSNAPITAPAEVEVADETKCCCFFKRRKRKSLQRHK
UniProt Q6PHR2, whole entry, species assumed: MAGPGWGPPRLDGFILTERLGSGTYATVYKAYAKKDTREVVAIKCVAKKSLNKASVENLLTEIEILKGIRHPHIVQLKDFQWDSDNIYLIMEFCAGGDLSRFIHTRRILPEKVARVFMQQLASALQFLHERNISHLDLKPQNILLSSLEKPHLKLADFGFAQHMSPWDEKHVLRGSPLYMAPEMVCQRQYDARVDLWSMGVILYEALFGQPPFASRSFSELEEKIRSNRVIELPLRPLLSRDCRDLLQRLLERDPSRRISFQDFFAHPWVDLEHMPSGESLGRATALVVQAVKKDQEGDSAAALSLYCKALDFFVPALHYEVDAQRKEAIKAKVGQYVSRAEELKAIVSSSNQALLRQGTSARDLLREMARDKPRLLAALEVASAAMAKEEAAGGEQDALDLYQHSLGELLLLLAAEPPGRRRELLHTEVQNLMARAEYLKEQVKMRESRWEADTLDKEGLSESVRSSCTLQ

What was measured:
MSSK1/STK23 = MSSK1/STK23 (Homo sapiens, UniProt Q9UPE1); assay: biochemical; details: read-out: % enzyme activity, 1 μM; Run 1, Run 2
MRCKa/CDC42BPA = MRCKa/CDC42BPA (Homo sapiens, UniProt Q5VT25); details: 1 μM; Run 1, Run 2
TLK1 = TLK1 (Homo sapiens, UniProt Q9UKI8); details: 1 μM; Run 1, Run 2
c-MER = c-MER (Homo sapiens, UniProt Q12866); details: 1 μM; Run 1, Run 2
GSK3a = GSK3a (Homo sapiens, UniProt P49840); assay: biochemical; details: read-out: % enzyme activity, 1 μM; Run 1, Run 2
MAST3 = MAST3 (Homo sapiens, UniProt O60307); assay: biochemical; details: read-out: % enzyme activity, 1 μM; Run 1, Run 2
ERBB2/HER2 = ERBB2/HER2 (Homo sapiens, UniProt P04626); assay: biochemical; details: read-out: % enzyme activity, 1 μM; Run 1, Run 2
NEK8 = NEK8 (Homo sapiens, UniProt Q86SG6); details: 1 μM; Run 1, Run 2
DYRK4 = DYRK4 (Homo sapiens, UniProt Q9NR20); details: 1 μM; Run 1, Run 2
LIMK1 = LIMK1 (Homo sapiens, UniProt P53667); assay: biochemical; details: read-out: % enzyme activity, 1 μM; Run 1, Run 2
LCK2/ICK = LCK2/ICK (Homo sapiens, UniProt Q9UPZ9); assay: biochemical; details: read-out: % enzyme activity, 1 μM; Run 1, Run 2
ITK = ITK (Homo sapiens, UniProt Q08881); assay: biochemical; details: read-out: % enzyme activity, 1 μM; Run 1, Run 2
DYRK2 [1] = biological target: T1, DYRK2 (Homo sapiens, UniProt Q92630); details: 1 μM; Run 1, Run 2
ASK1/MAP3K5 = ASK1/MAP3K5 (Homo sapiens, UniProt Q99683); assay: biochemical; details: read-out: % enzyme activity, 1 μM; Run 1, Run 2
MYLK3 = MYLK3 (Homo sapiens, UniProt Q32MK0); details: 1 μM; Run 1, Run 2
EPHB3 = EPHB3 (Homo sapiens, UniProt P54753); details: 1 μM; Run 1, Run 2
CAMK4 = CAMK4 (Homo sapiens, UniProt Q16566); assay: biochemical; details: read-out: % enzyme activity, 1 μM; Run 1, Run 2
PKCa = PKCa (Homo sapiens, UniProt P17252); details: 1 μM; Run 1, Run 2
CLK3 = CLK3 (Homo sapiens, UniProt P49761); details: 1 μM; Run 1, Run 2
MSK1/RPS6KA5 = MSK1/RPS6KA5 (Homo sapiens, UniProt O75582); details: 1 μM; Run 1, Run 2
STK25/YSK1 = STK25/YSK1 (Homo sapiens, UniProt O00506); assay: biochemical; details: read-out: % enzyme activity, 1 μM; Run 1, Run 2
TSSK2 = TSSK2 (Homo sapiens, UniProt Q96PF2); details: 1 μM; Run 1, Run 2
CAMK1d = CAMK1d (Homo sapiens, UniProt Q8IU85); details: 1 μM; Run 1, Run 2
ARK5/NUAK1 = ARK5/NUAK1 (Homo sapiens, UniProt O60285); assay: biochemical; details: read-out: % enzyme activity, 1 μM; Run 1, Run 2
P38g = P38g (Homo sapiens, UniProt P53778); assay: biochemical; details: read-out: % enzyme activity, 1 μM; Run 1, Run 2
CDK2/cyclin E2 = CDK2/cyclin E2 (Homo sapiens, UniProt P24941); assay: biochemical; details: read-out: % enzyme activity, 1 μM; Run 1, Run 2
SSTK/TSSK6 = SSTK/TSSK6 (Homo sapiens, UniProt Q9BXA6); details: 1 μM; Run 1, Run 2
RSK1 = RSK1 (Homo sapiens, UniProt Q15418); assay: biochemical; details: read-out: % enzyme activity, 1 μM; Run 1, Run 2
FER = FER (Homo sapiens, UniProt P16591); assay: biochemical; details: read-out: % enzyme activity, 1 μM; Run 1, Run 2
PAK4 = PAK4 (Homo sapiens, UniProt O96013); assay: biochemical; details: read-out: % enzyme activity, 1 μM; Run 1, Run 2
HIPK4 = HIPK4 (Homo sapiens, UniProt Q8NE63); details: 1 μM; Run 1, Run 2
DYRK2 [2] = biological target: T1, DYRK2; assay: biochemical; details: read-out: % enzyme activity, 1 μM; Run 1, Run 2
P38a/MAPK14 = P38a/MAPK14 (Homo sapiens, UniProt Q16539); assay: biochemical; details: read-out: % enzyme activity, 1 μM; Run 1, Run 2
LATS2 = LATS2 (Homo sapiens, UniProt Q9NRM7); assay: biochemical; details: read-out: % enzyme activity, 1 μM; Run 1, Run 2
BMX/ETK = BMX/ETK (Homo sapiens, UniProt P51813); assay: biochemical; details: read-out: % enzyme activity, 1 μM; Run 1, Run 2
GRK5 = GRK5 (Homo sapiens, UniProt P34947); assay: biochemical; details: read-out: % enzyme activity, 1 μM; Run 1, Run 2
RET = RET (Homo sapiens, UniProt P07949); details: 1 μM; Run 1, Run 2
SBK1 = SBK1 (Homo sapiens, UniProt Q52WX2); details: 1 μM; Run 1, Run 2
PAK3 = PAK3 (Homo sapiens, UniProt O75914); assay: biochemical; details: read-out: % enzyme activity, 1 μM; Run 1, Run 2
MKK4 = MKK4 (Homo sapiens, UniProt P45985); assay: biochemical; details: read-out: % enzyme activity, 1 μM; Run 1, Run 2
IRR/INSRR = IRR/INSRR (Homo sapiens, UniProt P14616); details: 1 μM; Run 1, Run 2
CK1g2 = CK1g2 (Homo sapiens, UniProt P78368); assay: biochemical; details: read-out: % enzyme activity, 1 μM; Run 1, Run 2
ULK3 = ULK3 (Homo sapiens, UniProt Q6PHR2); details: 1 μM; Run 1, Run 2

In the case of COc1cc(-c2cncc(-c3ccc(N4CCN(C(C)C)CC4)cc3)c2C)cc(F)c1C(N)=O [Compound 26b, 2-Fluoro-4-(5-(4-(4-isopropylpiperazin-1-yl)phenyl)-4-methylpyridin-3-yl)-6-methoxybenzamide], the remaining activity at 1 µM (MSSK1/STK23) was 98.2%, the “% enzyme activity” value (MRCKa/CDC42BPA) was 102.98% and the “% enzyme activity” value (TLK1) was 109.03%. The “% enzyme activity” value (c-MER) was 95.70%, the remaining activity at 1 µM (GSK3a) was 103% and the remaining activity at 1 µM (MAST3) was 97.5%. For the same compound, the remaining activity at 1 µM (ERBB2/HER2) was 87.2%, the “% enzyme activity” value (NEK8) was 100.17% and the “% enzyme activity” value (DYRK4) was 96.54%. The remaining activity at 1 µM (LIMK1) was 77.9%, the remaining activity at 1 µM (LCK2/ICK) was 89.4% and the remaining activity at 1 µM (ITK) was 99.5%. The “% enzyme activity” value (DYRK2 [1]) was 95.78%, the remaining activity at 1 µM (ASK1/MAP3K5) was 101% and the “% enzyme activity” value (MYLK3) was 101.18%. The “% enzyme activity” value (EPHB3) was 92.25%, the remaining activity at 1 µM (CAMK4) was 104% and the “% enzyme activity” value (PKCa) was 85.60%. The “% enzyme activity” value (CLK3) was 91.99%, the “% enzyme activity” value (MSK1/RPS6KA5) was 96.47% and the remaining activity at 1 µM (STK25/YSK1) was 92.8%. The “% enzyme activity” value (TSSK2) was 102.75%, the “% enzyme activity” value (CAMK1d) was 98.72% and the remaining activity at 1 µM (ARK5/NUAK1) was 92.5%. For the same compound, the remaining activity at 1 µM (P38g) was 94.4%, the remaining activity at 1 µM (CDK2/cyclin E2) was 105% and the “% enzyme activity” value (SSTK/TSSK6) was 107.83%. The remaining activity at 1 µM (RSK1) was 97%, the remaining activity at 1 µM (FER) was 83.9% and the remaining activity at 1 µM (PAK4) was 104%. The “% enzyme activity” value (HIPK4) was 103.79%, the remaining activity at 1 µM (DYRK2 [2]) was 97.5% and the remaining activity at 1 µM (P38a/MAPK14) was 99.8%. For the same compound, the remaining activity at 1 µM (LATS2) was 110%, the remaining activity at 1 µM (BMX/ETK) was 103% and the remaining activity at 1 µM (GRK5) was 99.9%. The “% enzyme activity” value (RET) was 89.18%, the “% enzyme activity” value (SBK1) was 96.20% and the remaining activity at 1 µM (PAK3) was 90.2%. For the same compound, the remaining activity at 1 µM (MKK4) was 94.3%, the “% enzyme activity” value (IRR/INSRR) was 121.01% and the remaining activity at 1 µM (CK1g2) was 73.2%. For the same compound, the “% enzyme activity” value (ULK3) was 93.28%.
